Measurements reported in PubChem BioAssay AID504774 (Drosophila RNAi Screening Center, 2011)

- Screen: 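Genes required for cells to withstand methyl methanesulphonate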 (primary screen)
- Cell system: Drosophila Kc167 cells
- Knock-down reagent: long dsRNA against Drosophila genes, about 0.25 µg dsRNA per well
- Time to read-out: about 6 days: 3 days knock-down, then 3 days with or without MMS
- Conditions: methyl methanesulphonate 0.004% (w/v) for 3 days after knock-down
- Measurement: 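ATP-dependent luminescence as a measure of live cells in MMS-exposed wells, quantile normalised within each plate, with replicate values also given as a mean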
- Reading the numbers: mean viability with MMS and viability with MMS: higher = more surviving cells after MMS
In all, the deposit lists about 23,000 reagents; shown is an unselected part of those with a known target gene and a result. 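Values are quantile-normalised luminescence on an arbitrary scale; higher means more cells surviving MMS.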

gene knocked down	dsRNA	mean viability with MMS	viability with MMS, replicate 1	viability with MMS, replicate 2
CtsL4 (GeneID 34401)	DRSC02849	3.69e6	3.99e6	4.36e6
Mondo (GeneID 35402)	DRSC02667	3.50e6	4.06e6	4.18e6
Mondo (GeneID 35402)	DRSC02668	3.41e6	3.81e6	3.87e6
Mondo (GeneID 35402)	DRSC22006	3.25e6	3.85e6	3.78e6
CG2641 (GeneID 40921)	DRSC15441	3.56e6	4.05e6	4.04e6
Rsod (GeneID 43586)	DRSC15424	3.49e6	3.95e6	3.95e6
ova (GeneID 34362)	DRSC02879	3.73e6	4.60e6	3.91e6
CG14418 (GeneID 31275)	DRSC18637	3.33e6	3.83e6	3.75e6
CG14418 (GeneID 31275)	DRSC23051	3.51e6	3.95e6	4.05e6
Sulf1 (GeneID 53437)	DRSC16874	3.44e6	3.91e6	3.87e6
Jhbp4 (GeneID 41948)	DRSC14222	3.60e6	4.19e6	4.00e6
CG12129 (GeneID 36044)	DRSC06105	3.71e6	4.09e6	4.31e6
BTBD9 (GeneID 32000)	DRSC18148	3.80e6	4.41e6	4.13e6
BTBD9 (GeneID 32000)	DRSC22371	3.28e6	3.83e6	3.83e6
ssp2 (GeneID 39540)	DRSC11052	3.39e6	3.74e6	3.93e6
CR30029 (GeneID 5740197)	DRSC06724	3.71e6	3.84e6	4.58e6
Mtpalpha (GeneID 34276)	DRSC01994	3.63e6	4.42e6	3.84e6
Cep135 (GeneID 39647)	DRSC09345	3.50e6	3.97e6	3.98e6
Cep135 (GeneID 39647)	DRSC10244	3.68e6	4.19e6	4.09e6
CG9981 (GeneID 32609)	DRSC20225	3.47e6	3.89e6	3.98e6
f-cup (GeneID 41677)	DRSC14139	3.37e6	3.82e6	3.79e6
CG12236 (GeneID 31523)	DRSC17830	2.62e6	2.74e6	3.16e6
CG12236 (GeneID 31523)	DRSC17831	3.50e6	3.92e6	4.03e6
CG6654 (GeneID 41831)	DRSC16084	3.50e6	3.93e6	3.98e6
Cap-D3 (GeneID 33778)	DRSC02349	3.43e6	3.81e6	3.94e6
Ppa (GeneID 37602)	DRSC04598	3.80e6	4.25e6	4.31e6
nvd (GeneID 5740633)	DRSC22139	3.60e6	4.10e6	4.02e6
CG7900 (GeneID 40957)	DRSC16336	3.47e6	4.26e6	4.14e6
CG7900 (GeneID 40957)	DRSC21343	3.31e6	3.89e6	3.75e6
HDAC1 (GeneID 38565)	DRSC08696	3.40e6	3.88e6	3.85e6
Ehbp1 (GeneID 36912)	DRSC06561	3.41e6	3.91e6	3.84e6
Balat (GeneID 36417)	DRSC06852	3.56e6	4.05e6	4.03e6
CG12307 (GeneID 34584)	DRSC02159	3.39e6	3.73e6	3.92e6
Osi17 (GeneID 40774)	DRSC12284	3.35e6	3.83e6	3.79e6
CG17985 (GeneID 35702)	DRSC06702	3.54e6	3.91e6	4.11e6
Or74a (GeneID 39929)	DRSC11245	3.49e6	3.97e6	3.94e6
CG2291 (GeneID 35804)	DRSC06836	3.63e6	4.13e6	4.04e6
CG31198 (GeneID 318622)	DRSC15891	3.62e6	4.11e6	4.09e6
tai (GeneID 34242)	DRSC02207	2.96e6	3.54e6	3.56e6
tai (GeneID 34242)	DRSC02673	3.54e6	4.03e6	4.02e6
Recs1 (GeneID 41724)	DRSC16545	3.47e6	3.82e6	4.04e6
ringer (GeneID 39813)	DRSC10455	3.54e6	4.05e6	3.99e6
CG2964 (GeneID 33475)	DRSC00554	3.39e6	3.85e6	3.78e6
l(2)34Fd (GeneID 34839)	DRSC01911	3.37e6	3.78e6	3.80e6
kek4 (GeneID 34718)	DRSC03220	3.78e6	4.23e6	4.36e6
TwdlB (GeneID 43202)	DRSC16050	3.51e6	4.20e6	3.74e6

Targets above whose target name starts with O or o (3):
gene knocked down	dsRNA	mean viability with MMS	viability with MMS, replicate 1	viability with MMS, replicate 2
ova (GeneID 34362)	DRSC02879	3.73e6	4.60e6	3.91e6
Osi17 (GeneID 40774)	DRSC12284	3.35e6	3.83e6	3.79e6
Or74a (GeneID 39929)	DRSC11245	3.49e6	3.97e6	3.94e6
